# Counter-ions that a name gives are not always drawn. ± gives the standard deviation of the averaged measurements. The list shows a part of the results. Plates or batches differ in their baseline, so values are only roughly comparable.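 Culture-activated primary human stellate myofibroblasts, where regained lipid droplets signal inactivation. Value: share of Hoechst-counted cells above a per-plate Bodipy cutoff, in duplicate wells, with DMSO negative and nortriptyline positive controls on each plate. Hits: a control-normalized score above the plate's top-tenth-percentile nortriptyline wells, or one of a plate's three best wells. Final well concentrations are not given.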
# Tested on: primary human hepatic stellate cells (donor 1)
# Assay: percent Bodipy-positive cells; higher = more lipid droplet accumulation
# Settings: 48 h
# [1] = library stock concentration: 10 mM
# [2] = library stock concentration: 3.33 mM
structure (smiles),measurement,setting,value
C[C@]12CCC(=O)C=C1CC[C@@H]1[C@@H]2CC[C@@]2(C)[C@H]1CC[C@]2(C)O [Methyltestosterone],percent Bodipy-positive cells,[1],20.1 ± 5.7%
CCOc1ccccc1-n1c(C(C)N2CCN(C(=O)COc3ccc(Cl)cc3)CC2)nc2ccccc2c1=O (stereo not given) [Erastin],percent Bodipy-positive cells,[2],28.4 ± 4.6%
same,percent Bodipy-positive cells,[1],69.8 ± 2.3%
CN1[C@@H]2CC[C@H]1C[C@@H](OC(=O)C(CO)c1ccccc1)C2 (stereo not given in full) [Atropine],percent Bodipy-positive cells,[2],9.89 ± 0.4%
same,percent Bodipy-positive cells,[1],16.5 ± 6%
CN1[C@@H]2CC[C@H]1C[C@@H](OC(=O)C(CO)c1ccccc1)C2 (stereo not given in full) [Atropine sulfate monohydrate],percent Bodipy-positive cells,,18 ± 4.5%
CN1[C@@H]2CC[C@H]1C[C@@H](OC(=O)C(CO)c1ccccc1)C2 (stereo not given in full) [Atropine sulfate],percent Bodipy-positive cells,library stock concentration: 5.2 mM,1.59 ± 0.32%
same,percent Bodipy-positive cells,library stock concentration: 6.9 mM,6.77 ± 0.59%
CN1[C@@H]2CC[C@H]1C[C@@H](OC(=O)C(CO)c1ccccc1)C2 (stereo not given in full),percent Bodipy-positive cells,[1],33.3 ± 1.9%
c1ccc(C2CC2)c(OCC2=NCCN2)c1 [Cirazoline],percent Bodipy-positive cells,library stock concentration: 23.1 mM,66.1 ± 9.1%
c1ccc(C2CC2)c(OCC2=NCCN2)c1 [Cirazoline HCl],percent Bodipy-positive cells,library stock concentration: 9.2 mM,11.8 ± 2.1%
CN1[C@@H]2CC[C@H]1C[C@@H](OC(c1ccccc1)c1ccccc1N)C2 (stereo not given in full) [Aminobenztropine],percent Bodipy-positive cells,[1],76.9 ± 5%
CNC(Cc1c[nH]c2ccccc12)C(=O)O (stereo not given) [Abrine (l)],percent Bodipy-positive cells,[1],31.6 ± 9.6%
CNC(C)(C)Cc1ccccc1 [Mephentermine sulfate],percent Bodipy-positive cells,library stock concentration: 7.7 mM,22 ± 2.1%
same,percent Bodipy-positive cells,[1],56.3 ± 11%
CNC(C)(C)Cc1ccccc1 [Mephentermine hemisulfate],percent Bodipy-positive cells,,13.3 ± 5%
CCOP(=S)(OCC)Oc1cc(C)nc(C(C)C)n1,percent Bodipy-positive cells,[1],33.4 ± 5.2%
"c1ccc(CC(c2ccccc2)N2CCCCC2)cc1 (stereo not given) [(?)-1-(1,2-Diphenylethyl)piperidine maleate]",percent Bodipy-positive cells,[1],24.3 ± 2.7%
C[C@]12CCC(=O)C(O)=C1CC[C@@H]1[C@@H]2CC[C@]2(C)C(=O)CC[C@@H]12 [Formestane],percent Bodipy-positive cells,[2],18.1 ± 4.2%
same,percent Bodipy-positive cells,library stock concentration: 6.6 mM,15.9 ± 3.3%
C=C(C)CN1CC[C@@]23c4c5ccc(O)c4O[C@H]2c2[nH]c4ccccc4c2C[C@]3(O)C1C5 [SDM25N hydrochloride],percent Bodipy-positive cells,[1],60.9 ± 4.6%
NCC(CP(=O)(O)O)c1ccc(Cl)cc1 (stereo not given) [Phaclofen],percent Bodipy-positive cells,[1],7.57 ± 2.5%
CN1[C@@H]2CC[C@H]1CC(OC(=O)N1Cc3ccccc3NC1=O)C2 (stereo not given in full) [DAU 5884 hydrochloride],percent Bodipy-positive cells,[1],10.2 ± 2.8%
C[C@@H]1O[C@@H](O[C@@H]2C[C@@H](O)[C@]3(CO)[C@H]4[C@H](O)C[C@]5(C)[C@@H](C6=CC(=O)OC6)CC[C@]5(O)[C@@H]4CC[C@]3(O)C2)[C@H](O)[C@H](O)[C@H]1O [Ouabain],percent Bodipy-positive cells,[1],59.48 ± 0.071%
CC[C@H]1CN2CCc3cc(OC)c(OC)cc3C2C[C@@H]1CC1NCCc2cc(OC)c(OC)cc21.Cl.Cl (stereo not given in full) [Emetine],percent Bodipy-positive cells,library stock concentration: 3.6 mM,81.2 ± 3.6%

# Two records drawn at random from the list so far, as already listed:
structure (smiles),measurement,setting,value
c1ccc(C2CC2)c(OCC2=NCCN2)c1 [Cirazoline],percent Bodipy-positive cells,library stock concentration: 23.1 mM,66.1 ± 9.1%
CN1[C@@H]2CC[C@H]1C[C@@H](OC(c1ccccc1)c1ccccc1N)C2 (stereo not given in full) [Aminobenztropine],percent Bodipy-positive cells,[1],76.9 ± 5%
